Source: publication PMC9779020
These are yes or no findings as the source states them, for the method shown. In cells and extracts the contact can be indirect. Here binding means that the protein was enriched with, or labelled near, the bait; the list need not be complete.

Chains of the proteins cited; added tags and fusions are not shown. Residues count along the entry.
UniProt P05067, residues 672-713: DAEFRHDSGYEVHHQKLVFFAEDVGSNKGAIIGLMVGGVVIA
UniProt P63104: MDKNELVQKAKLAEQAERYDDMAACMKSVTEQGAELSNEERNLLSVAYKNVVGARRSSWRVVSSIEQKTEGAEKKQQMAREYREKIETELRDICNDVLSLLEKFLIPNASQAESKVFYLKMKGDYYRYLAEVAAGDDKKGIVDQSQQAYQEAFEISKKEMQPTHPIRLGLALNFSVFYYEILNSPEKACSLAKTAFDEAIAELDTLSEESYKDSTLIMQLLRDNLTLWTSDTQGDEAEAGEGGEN
UniProt P31947: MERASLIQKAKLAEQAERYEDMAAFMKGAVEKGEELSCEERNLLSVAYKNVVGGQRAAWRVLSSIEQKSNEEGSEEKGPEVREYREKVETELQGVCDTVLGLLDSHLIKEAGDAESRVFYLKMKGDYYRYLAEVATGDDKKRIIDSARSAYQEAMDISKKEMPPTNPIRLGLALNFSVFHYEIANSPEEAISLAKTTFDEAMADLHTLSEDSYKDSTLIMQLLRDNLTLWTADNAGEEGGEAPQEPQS

Biological target: amyloid beta Aβ1-42 (human (endogenous in hippocampus)) (UniProt P05067)
Experiment: affinity purification with mass spectrometry; detergent-insoluble aggregates from AD and age-matched control (AMC) hippocampi, immunoprecipitated with antibodies to amyloid beta or tau; spectral hits

Row | binding | Substance
1 | binds | 14-3-3Z (14-3-3 zeta) (from UniProt P63104 1-245)
2 | binds | 14-3-3S (14-3-3 sigma) (from UniProt P31947 1-248)
